Several values for one entry are separate records, joined by “and”; a condition that tells them apart may be missing. Identical values can stand only once. Screen size: about 340,000 compounds; about 6,200 (1.8%) were called active. The shares of active, inactive and inconclusive entries below differ from those in the screen. The call rests on the fitted dose curve; in most records, active means well fitted activation curve with a large enough effect; inconclusive means small, poorly fitted or top-dose-only effect; inactive means no such curve, though single readings can be large or run the other way. A potency beside an inconclusive call is a rough fit, not a confirmed value.
experiment: A quantitative high throughput screen for small molecules that induce DNA re-replication in SW480 colon adenocarcinoma cells.; further: nearly all actives have a fitted effect of over 55% in size; on re-replication activation: % of control where 0% means no effect; settings: Hoechst DNA content imaging, 48 h; re-replication activation: at 46.1 µM (top of the series) unless noted
How it was run: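 Image-based DNA-content assay: after two days of treatment, nuclei were labelled with the DNA dye Hoechst and imaged, and hits were compounds raising the count of nuclei showing high fluorescence intensity.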
Potency means the concentration at half of the fitted maximal effect.

Compound	Potency	re-replication activation
Cc1ccc(C(=O)/C=C/c2ccccc2[N+](=O)[O-])cc1	inconclusive: 29.1 µM [activator, single point]	–
CCN(Cc1ccccc1)S(=O)(=O)c1ccc(C(=O)N(CCCN(C)C)c2nc3c(C)c(C)ccc3s2)cc1	active: 6.51 µM	–
CS(=O)(=O)N(CC(O)Cn1c2ccccc2c2ccccc21)c1ccccc1 (centres undefined)	–	inactive: 0.0145%
N#C/C(=C\C1CC=CCC1)c1nc2ccccc2[nH]1 (centres undefined)	inconclusive: 23.1 µM [activator, partial curve, poor fit]	–
CCOC(=O)C(NC(=O)c1ccccc1)(OCC1(CC)COC1)C(F)(F)F (centres undefined)	–	inactive: -2.78%
CCOC(=O)c1ccc(N2C(=O)C=CC2=O)cc1	inconclusive: 29.1 µM [activator, single point]	–
Cc1ccc2c(CN3CCN(S(=O)(=O)c4ccccc4C(F)(F)F)CC3)cc(=O)oc2c1C	–	inactive: -16.5%
O=C(c1cn2ccccc2n1)N1CCc2c([nH]c3ccccc23)C1c1ccccn1 (centres undefined)	inconclusive: 23.1 µM [activator, partial curve, poor fit]	–
COc1ccc(O)c(C(=O)CC(=O)c2ccccc2C)c1	active: 20.6 µM	–
Nc1c(C(=O)NCc2ccccc2)c2nc3ccccc3nc2n1-c1ccc2c(c1)OCO2	–	inactive: 4.9%
O=C(N/N=C/c1cn(-c2cccs2)nc1-c1ccccc1)c1ccccc1O	inconclusive: 2.06 µM [activator, partial curve, poor fit]	–
C=C(C(=O)c1ccccc1)C(c1ccccc1)C(C)C(=O)c1ccccc1 (centres undefined)	inconclusive: 20.6 µM [activator, single point]	–
Cc1noc(C)c1CSc1ccc(Br)cc1	inconclusive: 32.6 µM [activator, partial curve, poor fit]	–
CCCCCCCNC(=O)C1(CC2CC(c3cccc(Br)c3)=NO2)CCN(C(=O)C2(C)CC2)CC1 (centres undefined)	–	inactive: 3.62%
COc1ccc(S(=O)(=O)N2CCC(C(=O)NC3CC3)CC2)cc1	–	inactive: -26.5%
Cc1ccccc1S(=O)(=O)Nc1ncnc2ccccc12	–	inactive: -3%
Cc1cc2oc(=O)cc(CN(C)Cc3ccccc3)c2cc1C(C)C	inconclusive: 11.6 µM [activator, single point]	–
CCCCCCOc1ccc(C(=N)N(CCCC)CCCC)c2ccccc12	inconclusive: 11.9 µM [activator, single point]	–
CN(C)C1=NCC(CSC(=N)N)S1 (centres undefined)	active: 8.2 µM	–
Cc1cc(NC(=O)CSc2nc(-c3ccco3)cc(C(F)(F)F)n2)n(-c2ccccc2)n1	inconclusive: 29.1 µM [activator, single point]	–
COc1cc2ccccc2cc1C(=O)Nc1ccccc1N1CCCC1	–	inactive: 3.27%
CCc1c(C)c2ccc(O)c(CN3CCCC3)c2oc1=O	inconclusive: 18.4 µM [activator, single point]	–
CN(C)CCNC(=O)c1ccc(Cl)c2cc3ccccc3nc12	inconclusive: 7.31 µM [activator, partial curve]	–

Compound	Potency	re-replication activation
CCC(C)NC(=O)C1CCC(CNS(=O)(=O)c2ccc3c(c2)N(C(C)=O)CCO3)CC1 (centres undefined)	–	inactive: 26.8%
Cc1cccc(NC(=S)N/N=C2\CC(C)(C)Oc3ccc(O)cc32)c1	inconclusive: 29.1 µM [activator, single point]	–
CC(C)(C)C1CCC(CN2CCC(CN3C(=O)C(=O)NC[C@@H]3Cc3ccccc3)CC2)CC1 (some centres undefined)	inconclusive: 29.1 µM [activator, single point]	–
Cc1cc(C)c(C)c(S(=O)(=O)N2CCCN(C)CC2)c1C	inconclusive: 18.4 µM [activator, single point]	–
CCN1CCN(CC#CCOc2ccccc2OC)CC1	inconclusive: 29.1 µM [activator, single point]	–
Clc1ccc(Nc2nnc(Cc3ccncc3)c3ccccc23)cc1	–	inactive: 8.25%
CCc1ccc(NC(=O)NCC2CCN(Cc3cccc(Cl)c3)CC2)cc1	inconclusive: 29.1 µM [activator, single point]	–
COc1ccc(OC)c(C(=O)COC(=O)CNC(=O)c2ccccc2)c1	inconclusive: 23.1 µM [activator, single point]	–
COCCn1nnnc1C(c1cc2cc(C)ccc2[nH]c1=O)N1CCN(C2CCCCC2)CC1 (centres undefined)	inconclusive: 20.6 µM [activator, partial curve, poor fit]	–
O=C(Nc1ccc(N2CCOCC2)cc1)c1cccc2ccccc12	active: 9.2 µM	–
Cc1ccc(NC(=O)c2cc(=O)c3ccccc3o2)c(C)c1	–	inactive: -4.63%
COc1ccc(Nc2nc(C)cc(-c3cc(-c4ccccc4)on3)n2)cc1	–	inactive: -5.6%
CCn1nc(C)c(Br)c1Nc1ccc(Br)cc1	inconclusive: 20.6 µM [activator, single point]	–
CCn1cnc2scc(-c3ccc(OC)cc3)c2c1=O	inconclusive: 29.1 µM [activator, single point]	–
Cc1cccc(CN2CCC(CNC(=O)Nc3ccc(F)c(Cl)c3)CC2)c1	inconclusive: 29.1 µM [activator, single point]	–
CNC1(C)[C@H]2CC[C@H](C2)C1(C)C (some centres undefined)	–	inactive: 0.59%
Cc1ccc(C2=NS(=O)(=O)N(C)C(C(=O)N(C)C3CCCCC3)=C2)cc1	inconclusive: 14.6 µM [activator, partial curve]	–
COC(=O)COc1ccc(S(=O)(=O)NCc2ccco2)cc1	–	inactive: 0.494%
CCc1ccc(OCCNC(=O)c2ccco2)cc1	inconclusive: 2.59 µM [activator, full curve, poor fit]	–
Cc1ccc(C)c(N2CCN(C(=O)C34CC5CC(C3)CC(n3nnc(C)n3)(C5)C4)CC2)c1	–	inactive: 5.34%
COc1ccc2c(C)c(CC(=O)N3CCN(C(=O)C4COc5ccccc5O4)CC3)c(=O)oc2c1C (centres undefined)	active: 16.4 µM	–
Cc1nc(N2CCN(C(=O)c3ccco3)CC2)c2c3c(sc2n1)CC(C)CC3 (centres undefined)	–	inactive: -169%
CC(=O)c1ccc(NC(=O)c2ccc3c(=O)n4c(nc3c2)CCCCC4)cc1	inconclusive: 1.03 µM [activator, partial curve, poor fit]	–

Compound	Potency	re-replication activation
COc1ccc(/C(N)=N/OC(=O)c2ccc3c(c2)OCO3)cc1OC	inconclusive: 29.1 µM [activator, single point]	–
N=C1N(c2ccccc2)C(=S)C(=Nc2ccccc2)N1c1ccccc1	inconclusive: 29.1 µM [activator, single point]	–
CCCC(=O)Oc1c(S(=O)(=O)c2ccc(C)cc2)c(C)nn1C(C)(C)C	–	inactive: 0.518%
N#CC1=C(N)Oc2n[nH]c(-c3cccnc3)c2C1c1ccc([N+](=O)[O-])o1 (centres undefined)	inconclusive: 29.1 µM [activator, single point]	–
O=c1c2ccccc2[nH]c(=S)n1CCCN1CCC(Cc2ccccc2)CC1	–	inconclusive: -20.8% [activator]
CCOc1cc(/C=C(\C#N)C(=O)NCC2CCCO2)ccc1O (centres undefined)	inconclusive: 0.731 µM [activator, full curve, poor fit]	–
CCOC(=O)/C=C/C(=O)Nc1ccc(S(=O)(=O)Nc2c(C)cc(C)cc2C)cc1	inconclusive: 29.1 µM [activator, single point]	–
CC1CCCCN1C(=O)c1cc2nc(-c3ccccc3)cc(-c3ccccc3)n2n1 (centres undefined)	inconclusive: 9.2 µM [activator, partial curve, poor fit]	–
Cc1cc(C)nc(N2CCCC(C(=O)NCc3cccs3)C2)n1 (centres undefined)	–	inactive: -9.03%
CC(C)Oc1ccccc1NC(=O)CSc1nc2ccccc2c(=O)n1C	–	inactive: -2.55%
COc1ccc(/C(C)=N/NC(=O)c2cccc(S(=O)(=O)N3CCCC3)c2)c(O)c1	inconclusive: 0.517 µM [activator, single point]	–
O=C(COC(=O)C1CC1)NC(=O)c1ccccc1	–	inactive: -8.44%
COc1ccc(Nc2oc(-c3ccco3)nc2S(=O)(=O)c2ccc(F)cc2)cc1	inconclusive: 8.2 µM [activator, partial curve, poor fit]	–
N#CCc1ccc(NC(=O)c2ccc(CN3CCc4ccccc4C3)cc2)cc1	–	inconclusive: 44.2% [activator]
O=C(NNC1=NCCCCC1)Nc1ccc(Cl)cc1	inconclusive: 9.2 µM [activator, partial curve]	–
O=C(/C=N/NC(=O)c1ccc(Cl)cc1Cl)c1ccccc1	inconclusive: 11.6 µM [activator, partial curve]	–
Cc1ccc(C(=O)C2=C(O)C(=O)N(Cc3ccco3)C2c2ccc(N(C)C)cc2)o1 (centres undefined)	–	inconclusive: 37.9% [activator]
C#Cc1ccc([C@@H]2C=C(C(=O)O)O[C@H](OCc3ccc(CO)cc3)C2)cc1	inconclusive: 0.146 µM [activator, full curve, poor fit]	–
CCOc1ccc(-c2nc(N)ncc2-c2ccc(OC)cc2)c(O)c1	inconclusive: 3.66 µM [activator, full curve, poor fit]	–
O=C1/C(=C\c2ccccc2)CCC/C1=C/c1ccccc1	inconclusive: 29.1 µM [activator, single point]	–
Fc1ccc([C@@H]2CCNC[C@H]2COc2ccc3c(c2)OCO3)cc1	inconclusive: 29.1 µM [activator, partial curve, poor fit] and inconclusive: 35.5 µM [activator, single point] and inconclusive: 1.46 µM [activator, single point]	–
CCCC(C(=O)Nc1ccncc1)c1ccccc1 (centres undefined)	inconclusive: 29.1 µM [activator, single point]	–
COC(=O)Cc1ccc(O)c(N)c1	inconclusive: 0.058 µM [activator, full curve, poor fit]	–

From PubChem BioAssay AID624297 (National Center for Advancing Translational Sciences (NCATS), 2012)
